From US20100152418 (published 2010)

Assays:
[1] = general procedure: Fmoc solid-phase peptide synthesis; pre-loaded Fmoc-Ala-NovaSyn TGA (Tentagel) resin; details: whole synthesis; for final HPLC purity: 214 nm
[2] = general procedure: Fmoc solid-phase peptide synthesis; Fmoc-Ala-NovaSyn TGA; details: whole synthesis

Question: What does the source list for “Amyloid β (1-25)-S1-(27-42) [S1=(ArgPro)Ser]”?
Answer: crude yield [1]: 34%; isolated yield [1]: 13%; final HPLC purity [1]: >95%; crude mass ([2]; scale 0.05 mmol): 80 mg

Question: Which crude yield [1] does the source give for “Amyloid β (1-25)S1-(27-36)S2-(38-42) [S1=(H2^+)Ser; S2=(ArgPro)Ser]” here?
Answer: Its crude yield is 30%.

Question: And the isolated yield [1]?
Answer: Its isolated yield is 10.8%.

Question: What about the “final HPLC purity” value [1] of the same substance?
Answer: Its value is >96%.

Question: What about the crude mass ([2]; scale 0.069 mmol) of the same substance?
Answer: The crude mass was 100 mg.
